Some of these results come from one statement about several compounds together. At least one structure is not confirmed: it was looked up by name or label, or the drawing left a doubt.
Tested on: kidneys of Balb/c mice
Experiment: Invasive fluorescence kidney imaging of skin-removed mice after i.v. injection of fluorophore
Format: in vivo, mouse
Protocol: Invasive and noninvasive imaging of normal mice, UUO mice and sham mice were performed using the following protocol. The protocol for invasive and noninvasive imaging differed in only in that for invasive imaging, the mouse's kidneys are exposed via removal of the mouse's back skin. […] As shown in panel a, the kidneys are paired bean-shaped organs lying on either side of the vertebral column. The right kidney (RK) of a mouse is usually slightly higher than it left kidney (LK). Since the kidneys locate retroperitoneally against the dorsal body wall, LK (shown in panel b) and RK (shown in panel c) can be exposed once the back skin above the kidneys was removed. […] The mouse, along with its tail vein catheter, was placed in supine position on the stage of fluorescence imaging system, with the mouse's back facing the excitation light and charge-coupled device (CCD) camera. Fluorescence imaging of the each of mice proceeded as follows. Bright-field and fluorescence images of the each mouse was taken before injection with fluorophores. […] The solution of NIR-emitting GS-AuNPs contained 10 mg/mL gold atom as determined by inductively coupled plasma mass spectrometry (ICP-MS). Once the designated fluorophore solution was injected, whole body fluorescence images of each mouse were collected consecutively until 60 minutes post-injection. […]

| SMILES | time of accumulation in the kidneys post-injection [min] |
| --- | --- |
| CCN1C(=CC=CC2=[N+](CCCCCC(=O)O)c3ccc(S(=O)(=O)O)cc3C2(C)C)C(C)(C)c2cc(S(=O)(=O)[O-])ccc21 [Cy3, disulfo-Cy3 carboxylic acid] | ≤ 1 |
| CCN1C(=CC=CC=CC=CC2=[N+](CCCCCC(=O)O)c3ccc(S(=O)(=O)O)cc3C2(C)C)C(C)(C)c2cc(S(=O)(=O)[O-])ccc21 [Cy7, disulfo-Cy7 carboxylic acid] | ≤ 1 |

Reference: patent US10300151B2, “Methods and systems for noninvasive fluorescence-based functional imaging of kidneys” (Board of Regents, The University of Texas System, priority 2015, dated 2019)
